Measurements reported in publication PMC5221825.
These are yes or no findings as the source states them, for the method shown. Binding can be weak; no strength is given.

Protein sequences, listed by entry. Tags and fused reporters are not part of them. Lines headed by an entry give the natural chain unless they say otherwise; changes in a name come on top.
UniProt A6BLW4: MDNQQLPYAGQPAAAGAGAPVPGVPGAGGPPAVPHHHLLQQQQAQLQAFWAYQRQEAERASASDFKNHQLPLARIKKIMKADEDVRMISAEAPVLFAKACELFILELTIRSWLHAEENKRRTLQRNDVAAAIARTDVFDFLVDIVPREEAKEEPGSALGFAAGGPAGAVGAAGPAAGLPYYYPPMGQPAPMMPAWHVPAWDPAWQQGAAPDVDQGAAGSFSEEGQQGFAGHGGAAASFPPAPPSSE

T1: GRAIN YIELD, PLANT HEIGHT AND HEADING DATE 8 (Ghd8) (rice (Oryza sativa)) (UniProt Q0J7P4)
T1 sequence: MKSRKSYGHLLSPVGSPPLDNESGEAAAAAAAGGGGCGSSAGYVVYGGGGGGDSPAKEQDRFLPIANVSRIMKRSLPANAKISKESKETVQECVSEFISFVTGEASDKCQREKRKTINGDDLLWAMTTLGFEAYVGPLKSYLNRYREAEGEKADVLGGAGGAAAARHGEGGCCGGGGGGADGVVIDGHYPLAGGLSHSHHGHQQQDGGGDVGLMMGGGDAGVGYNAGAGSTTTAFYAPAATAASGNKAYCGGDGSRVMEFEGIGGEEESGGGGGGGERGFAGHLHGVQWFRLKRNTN


Key:
[1] = biological target: T1, GRAIN YIELD, PLANT HEIGHT AND HEADING DATE 8 (Ghd8) (rice (Oryza sativa)); assay: two-hybrid; GAL4 AD (pGADT7) and BD (pGBKT7) fusions in yeast (AH109, Y187), diploids after mating; growth on YSD lacking Leu, Trp and His with increasing 3AT; 6 days at 30°C
[2] = biological target: NF-YC1/Ghd8 heterodimer (rice (Oryza sativa)); assay: yeast three-hybrid; BD-Ghd8 (pGBKT7), NF-YC subunit or nothing from pTFT1, AD fusion (pGADT7); growth on YSD lacking Leu, Trp, Ade and His with increasing 3AT; 6 days at 30°C
[3] = biological target: NF-YC7/Ghd8 heterodimer (rice (Oryza sativa)); assay: as above

Row | Molecule | binding [1] | binding [2] | binding [3]
1 | NF-YC2 (from UniProt A6BLW4) | binds |  | 
2 | NF-YC7 (rice (Oryza sativa)) | binds |  | 

Results, then the molecule that gave them:

Row | binding [1] | binding [2] | binding [3] | Molecule
3 | binds |  |  | NF-YC1 (rice (Oryza sativa))
4 |  | binds | binds | PSEUDO RESPONSE REGULATOR 37 (PRR37) (protein, UniProt Q0D3B6 1-742) MMGTAHHNQTAGSALGVGVGDANDAVPGAGGGGYSDPDGGPISGVQRPPQVCWERFIQKKTIKVLLVDSDDSTRQVVSALLRHCMYEVIPAENGQQAWTYLEDMQNSIDLVLTEVVMPGVSGISLLSRIMNHNICKNIPVIMMSSNDAMGTVFKCLSKGAVDFLVKPIRKNELKNLWQHVWRRCHSSSGSGSESGIQTQKCAKSKSGDESNNNNGSNDDDDDDGVIMGLNARDGSDNGSGTQAQSSWTKRAVEIDSPQAMSPDQLADPPDSTCAQVIHLKSDICSNRWLPCTSNKNSKKQKETNDDFKGKDLEIGSPRNLNTAYQSSPNERSIKPTDRRNEYPLQNNSKEAAMENLEESSVRAADLIGSMAKNMDAQQAARAANAPNCSSKVPEGKDKNRDNIMPSLELSLKRSRSTGDGANAIQEEQRNVLRRSDLSAFTRYHTPVASNQGGTGFMGSCSLHDNSSEAMKTDSAYNMKSNSDAAPIKQGSNGSSNNNDMGSTTKNVVTKPSTNKERVMSPSAVKANGHTSAFHPAQHWTSPANTTGKEKTDEVANNAAKRAQPGEVQSNLVQHPRPILHYVHFDVSRENGGSGAPQCGSSNVFDPPVEGHAANYGVNGSNSGSNNGSNGQNGSTTAVNAERPNMEIANGTINKSGPGGGNGSGSGSGNDMYLKRFTQREHRVAAVIKFRQKRKERNFGKKVRYQSRKRLAEQRPRVRGQFVRQAVQDQQQQGGGREAAADR
